Assay results taken from PMC11161950.
These are yes or no findings as the source states them, for the method shown. In cells and extracts the contact can be indirect. Some binding calls cover weakened binding; strength is not graded here.

Protein sequences, listed by entry. Tags and fused reporters are not part of them.
UniProt Q93009: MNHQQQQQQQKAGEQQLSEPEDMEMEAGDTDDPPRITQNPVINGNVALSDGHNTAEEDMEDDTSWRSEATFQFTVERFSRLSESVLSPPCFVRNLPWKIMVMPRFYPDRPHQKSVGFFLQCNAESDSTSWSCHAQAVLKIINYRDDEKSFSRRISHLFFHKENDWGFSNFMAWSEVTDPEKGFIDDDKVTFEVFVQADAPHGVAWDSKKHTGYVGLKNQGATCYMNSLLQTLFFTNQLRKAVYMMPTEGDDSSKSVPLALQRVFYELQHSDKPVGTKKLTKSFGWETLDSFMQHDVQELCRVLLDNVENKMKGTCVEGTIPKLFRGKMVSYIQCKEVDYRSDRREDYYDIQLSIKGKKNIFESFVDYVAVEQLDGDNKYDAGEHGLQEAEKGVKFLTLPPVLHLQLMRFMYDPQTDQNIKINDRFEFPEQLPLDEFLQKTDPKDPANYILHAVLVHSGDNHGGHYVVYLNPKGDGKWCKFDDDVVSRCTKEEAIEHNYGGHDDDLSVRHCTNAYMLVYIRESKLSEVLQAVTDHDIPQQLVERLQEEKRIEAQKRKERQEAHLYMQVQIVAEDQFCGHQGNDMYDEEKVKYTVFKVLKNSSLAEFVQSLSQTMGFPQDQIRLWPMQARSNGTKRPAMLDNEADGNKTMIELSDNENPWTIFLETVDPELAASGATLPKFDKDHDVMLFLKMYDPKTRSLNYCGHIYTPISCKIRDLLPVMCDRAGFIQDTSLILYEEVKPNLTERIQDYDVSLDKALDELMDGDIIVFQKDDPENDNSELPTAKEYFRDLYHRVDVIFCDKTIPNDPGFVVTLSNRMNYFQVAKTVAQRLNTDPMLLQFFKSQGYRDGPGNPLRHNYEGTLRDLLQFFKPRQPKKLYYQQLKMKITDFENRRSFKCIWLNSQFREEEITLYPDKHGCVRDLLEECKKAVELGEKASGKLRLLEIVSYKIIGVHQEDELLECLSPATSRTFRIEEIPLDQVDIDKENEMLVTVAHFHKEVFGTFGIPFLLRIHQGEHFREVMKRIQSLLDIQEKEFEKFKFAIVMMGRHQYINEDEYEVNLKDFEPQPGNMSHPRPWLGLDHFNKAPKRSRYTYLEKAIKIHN
UniProt O00425: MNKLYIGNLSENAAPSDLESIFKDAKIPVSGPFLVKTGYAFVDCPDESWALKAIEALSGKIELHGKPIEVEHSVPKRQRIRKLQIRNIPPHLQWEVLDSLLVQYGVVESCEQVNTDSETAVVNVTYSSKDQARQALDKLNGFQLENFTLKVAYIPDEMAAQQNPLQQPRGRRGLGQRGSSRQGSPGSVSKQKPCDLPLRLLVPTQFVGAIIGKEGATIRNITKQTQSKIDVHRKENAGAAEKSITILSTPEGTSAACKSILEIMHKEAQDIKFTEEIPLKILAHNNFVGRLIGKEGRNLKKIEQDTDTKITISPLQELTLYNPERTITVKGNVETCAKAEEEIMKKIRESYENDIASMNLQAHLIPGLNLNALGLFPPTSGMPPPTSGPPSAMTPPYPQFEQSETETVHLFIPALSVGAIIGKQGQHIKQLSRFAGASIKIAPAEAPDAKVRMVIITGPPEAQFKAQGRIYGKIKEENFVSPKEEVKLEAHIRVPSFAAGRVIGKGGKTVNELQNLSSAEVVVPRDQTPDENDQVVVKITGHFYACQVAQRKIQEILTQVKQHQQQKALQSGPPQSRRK

Key:
Myc-USP7 = Myc-USP7 (UniProt Q93009); assay: co-IP; HEK293T cells co-transfected with Myc-USP7 and Flag-tagged IGF2BP3 plasmids, with or without circSIPA1L3 plasmid; immunoprecipitated with anti-Myc or anti-Flag antibodies, western blot
[1] = target: IGF2BP3 (human (endogenous in breast cancer cells)) (UniProt O00425); assay: co-IP; endogenous IGF2BP3 and USP7; cells and precipitating antibody not told in the text shown (Figure S18D, E)

Substance | binding (Myc-USP7) | binding [1]
Flag-IGF2BP3 (from UniProt O00425 1-579) | binds | 
ubiquitin specific peptidase 7 (USP7) (from UniProt Q93009 1-1102) (enzyme) |  | binds
